According to the supplement of paper PMC10849652:
Some of the results follow.

Amino acid sequences for entries named in this document (tags omitted). A change or cut given only in a name is not applied to a line headed by its entry.
UniProt Q96FV2: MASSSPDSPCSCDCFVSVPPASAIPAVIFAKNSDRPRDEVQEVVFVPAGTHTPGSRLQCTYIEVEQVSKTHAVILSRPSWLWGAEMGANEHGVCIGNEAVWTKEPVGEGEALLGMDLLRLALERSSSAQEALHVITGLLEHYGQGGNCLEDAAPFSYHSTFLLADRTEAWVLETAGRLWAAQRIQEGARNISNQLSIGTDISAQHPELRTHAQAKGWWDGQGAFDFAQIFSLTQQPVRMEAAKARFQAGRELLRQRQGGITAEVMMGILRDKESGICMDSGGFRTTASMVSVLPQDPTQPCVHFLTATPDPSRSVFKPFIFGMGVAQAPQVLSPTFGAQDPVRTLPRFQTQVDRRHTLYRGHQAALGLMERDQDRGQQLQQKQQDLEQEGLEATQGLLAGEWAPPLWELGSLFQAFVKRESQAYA
UniProt O94855: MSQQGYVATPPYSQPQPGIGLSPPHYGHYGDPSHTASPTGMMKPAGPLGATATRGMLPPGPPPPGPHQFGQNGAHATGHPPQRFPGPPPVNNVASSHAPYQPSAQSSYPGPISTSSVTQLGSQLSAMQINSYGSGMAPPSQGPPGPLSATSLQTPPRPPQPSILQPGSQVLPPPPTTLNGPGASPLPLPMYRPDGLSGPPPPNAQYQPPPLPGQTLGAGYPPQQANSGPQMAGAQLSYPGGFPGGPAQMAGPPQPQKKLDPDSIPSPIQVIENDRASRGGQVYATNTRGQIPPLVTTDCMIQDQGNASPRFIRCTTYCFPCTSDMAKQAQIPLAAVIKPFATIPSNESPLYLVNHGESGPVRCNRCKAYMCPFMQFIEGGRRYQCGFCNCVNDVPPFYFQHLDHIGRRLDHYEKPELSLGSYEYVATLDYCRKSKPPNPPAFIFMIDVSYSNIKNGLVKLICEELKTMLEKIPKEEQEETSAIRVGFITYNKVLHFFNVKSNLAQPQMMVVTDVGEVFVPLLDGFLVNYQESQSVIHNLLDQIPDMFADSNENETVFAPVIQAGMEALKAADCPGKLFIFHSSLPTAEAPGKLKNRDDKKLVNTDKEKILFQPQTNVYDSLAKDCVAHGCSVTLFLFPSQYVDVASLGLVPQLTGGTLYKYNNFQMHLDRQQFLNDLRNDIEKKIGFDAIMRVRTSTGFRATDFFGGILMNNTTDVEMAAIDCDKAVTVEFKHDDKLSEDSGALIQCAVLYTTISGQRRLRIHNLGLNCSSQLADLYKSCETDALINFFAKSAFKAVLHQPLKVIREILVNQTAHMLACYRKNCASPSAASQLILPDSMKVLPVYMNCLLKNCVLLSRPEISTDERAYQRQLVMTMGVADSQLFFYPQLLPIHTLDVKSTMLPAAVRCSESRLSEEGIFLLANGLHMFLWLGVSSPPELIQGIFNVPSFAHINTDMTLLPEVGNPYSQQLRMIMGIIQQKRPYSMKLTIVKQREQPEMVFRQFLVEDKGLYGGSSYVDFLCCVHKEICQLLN
UniProt Q9HB40: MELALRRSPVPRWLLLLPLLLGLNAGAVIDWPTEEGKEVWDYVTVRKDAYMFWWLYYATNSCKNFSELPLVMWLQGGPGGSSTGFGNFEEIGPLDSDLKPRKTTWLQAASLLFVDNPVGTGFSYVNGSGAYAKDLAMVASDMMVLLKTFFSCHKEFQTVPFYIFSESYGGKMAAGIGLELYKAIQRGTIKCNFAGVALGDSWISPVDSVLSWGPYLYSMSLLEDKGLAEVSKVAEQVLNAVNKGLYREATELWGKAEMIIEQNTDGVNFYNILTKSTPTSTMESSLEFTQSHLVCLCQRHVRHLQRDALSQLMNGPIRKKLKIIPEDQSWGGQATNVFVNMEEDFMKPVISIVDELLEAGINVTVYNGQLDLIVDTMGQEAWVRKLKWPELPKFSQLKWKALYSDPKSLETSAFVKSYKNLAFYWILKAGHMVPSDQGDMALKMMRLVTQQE
UniProt Q9UHR5: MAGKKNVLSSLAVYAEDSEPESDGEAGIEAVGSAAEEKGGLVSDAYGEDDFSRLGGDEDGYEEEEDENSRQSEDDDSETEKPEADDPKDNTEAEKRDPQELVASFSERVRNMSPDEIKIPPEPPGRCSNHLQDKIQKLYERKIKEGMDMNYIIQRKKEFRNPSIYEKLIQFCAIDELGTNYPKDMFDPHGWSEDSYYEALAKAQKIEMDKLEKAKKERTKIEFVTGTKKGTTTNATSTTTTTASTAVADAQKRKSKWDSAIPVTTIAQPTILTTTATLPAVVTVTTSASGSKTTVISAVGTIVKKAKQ
UniProt Q9BRK5: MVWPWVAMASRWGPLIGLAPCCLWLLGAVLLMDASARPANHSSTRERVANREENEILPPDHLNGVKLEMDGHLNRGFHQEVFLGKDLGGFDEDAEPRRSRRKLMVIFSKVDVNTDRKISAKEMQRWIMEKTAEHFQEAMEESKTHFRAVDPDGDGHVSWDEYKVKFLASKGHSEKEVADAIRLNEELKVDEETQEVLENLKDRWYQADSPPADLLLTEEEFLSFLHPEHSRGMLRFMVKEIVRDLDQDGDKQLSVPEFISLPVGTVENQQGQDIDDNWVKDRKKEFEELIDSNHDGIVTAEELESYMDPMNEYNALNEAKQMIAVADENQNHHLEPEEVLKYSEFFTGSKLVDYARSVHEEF
UniProt Q9GZR1: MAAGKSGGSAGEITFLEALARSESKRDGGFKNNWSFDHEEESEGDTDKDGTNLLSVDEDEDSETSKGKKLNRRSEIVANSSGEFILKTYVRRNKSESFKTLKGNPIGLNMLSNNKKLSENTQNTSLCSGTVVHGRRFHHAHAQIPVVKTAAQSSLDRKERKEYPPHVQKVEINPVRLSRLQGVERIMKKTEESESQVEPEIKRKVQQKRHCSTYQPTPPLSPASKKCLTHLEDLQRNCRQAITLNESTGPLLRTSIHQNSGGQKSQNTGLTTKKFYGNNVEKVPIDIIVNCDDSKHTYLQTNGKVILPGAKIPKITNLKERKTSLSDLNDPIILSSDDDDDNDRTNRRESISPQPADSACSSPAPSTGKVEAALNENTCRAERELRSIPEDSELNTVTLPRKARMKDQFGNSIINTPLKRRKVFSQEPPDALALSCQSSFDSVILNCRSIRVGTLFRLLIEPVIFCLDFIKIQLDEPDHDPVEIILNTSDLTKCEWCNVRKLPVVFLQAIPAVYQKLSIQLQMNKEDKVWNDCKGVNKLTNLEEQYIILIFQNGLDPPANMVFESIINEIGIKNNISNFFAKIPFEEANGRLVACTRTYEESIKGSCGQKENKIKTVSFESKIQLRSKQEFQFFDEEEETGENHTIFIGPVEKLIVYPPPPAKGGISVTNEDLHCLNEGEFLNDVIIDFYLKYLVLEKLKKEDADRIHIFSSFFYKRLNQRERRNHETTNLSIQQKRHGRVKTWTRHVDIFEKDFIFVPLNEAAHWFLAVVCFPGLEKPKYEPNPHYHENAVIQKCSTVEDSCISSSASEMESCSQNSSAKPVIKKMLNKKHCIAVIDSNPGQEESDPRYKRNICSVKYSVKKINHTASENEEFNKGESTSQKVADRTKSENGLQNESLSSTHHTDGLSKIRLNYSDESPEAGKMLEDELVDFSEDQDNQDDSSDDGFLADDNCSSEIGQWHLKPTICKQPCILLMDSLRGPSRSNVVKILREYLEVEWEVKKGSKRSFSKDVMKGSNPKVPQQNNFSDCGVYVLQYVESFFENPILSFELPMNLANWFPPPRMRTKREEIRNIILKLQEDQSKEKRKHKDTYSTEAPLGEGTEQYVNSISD
UniProt Q9NR31: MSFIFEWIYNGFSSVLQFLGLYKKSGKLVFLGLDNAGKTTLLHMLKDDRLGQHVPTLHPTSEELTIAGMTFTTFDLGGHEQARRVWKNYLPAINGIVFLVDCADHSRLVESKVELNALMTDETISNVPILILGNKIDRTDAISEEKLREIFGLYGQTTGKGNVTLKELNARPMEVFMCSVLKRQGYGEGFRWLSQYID
UniProt Q96ER3: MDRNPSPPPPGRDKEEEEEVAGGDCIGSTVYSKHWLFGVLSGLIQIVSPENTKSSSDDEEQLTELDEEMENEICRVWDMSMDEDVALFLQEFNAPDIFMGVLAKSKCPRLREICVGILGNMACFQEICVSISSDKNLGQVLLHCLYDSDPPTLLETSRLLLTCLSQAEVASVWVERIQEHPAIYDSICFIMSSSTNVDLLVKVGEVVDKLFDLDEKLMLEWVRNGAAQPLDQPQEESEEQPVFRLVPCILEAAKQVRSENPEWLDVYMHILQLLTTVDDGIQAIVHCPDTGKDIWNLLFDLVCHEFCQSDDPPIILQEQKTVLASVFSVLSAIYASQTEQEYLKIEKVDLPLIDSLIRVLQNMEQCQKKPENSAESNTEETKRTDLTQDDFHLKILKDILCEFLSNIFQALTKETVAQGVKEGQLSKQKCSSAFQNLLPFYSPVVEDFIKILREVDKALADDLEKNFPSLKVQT
UniProt O15126: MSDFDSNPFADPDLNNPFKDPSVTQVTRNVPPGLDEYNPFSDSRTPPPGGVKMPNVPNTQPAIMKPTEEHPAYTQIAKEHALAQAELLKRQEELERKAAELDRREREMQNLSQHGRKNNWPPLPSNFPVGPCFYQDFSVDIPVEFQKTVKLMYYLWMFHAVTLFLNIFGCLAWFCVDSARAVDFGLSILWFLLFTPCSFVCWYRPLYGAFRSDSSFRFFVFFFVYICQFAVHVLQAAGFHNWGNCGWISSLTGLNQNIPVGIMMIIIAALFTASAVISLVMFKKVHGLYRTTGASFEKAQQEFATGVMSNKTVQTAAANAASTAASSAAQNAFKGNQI
UniProt Q9UBE0: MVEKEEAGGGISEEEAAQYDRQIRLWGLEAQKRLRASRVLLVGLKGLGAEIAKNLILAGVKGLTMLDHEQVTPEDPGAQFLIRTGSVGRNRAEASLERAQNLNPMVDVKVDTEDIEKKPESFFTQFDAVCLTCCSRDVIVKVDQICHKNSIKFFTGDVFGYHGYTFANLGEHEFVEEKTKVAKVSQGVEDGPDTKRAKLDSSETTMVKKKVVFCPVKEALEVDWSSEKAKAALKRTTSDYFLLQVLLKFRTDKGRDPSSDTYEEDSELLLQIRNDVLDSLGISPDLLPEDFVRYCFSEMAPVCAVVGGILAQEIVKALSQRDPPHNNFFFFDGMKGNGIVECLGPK
UniProt Q15019: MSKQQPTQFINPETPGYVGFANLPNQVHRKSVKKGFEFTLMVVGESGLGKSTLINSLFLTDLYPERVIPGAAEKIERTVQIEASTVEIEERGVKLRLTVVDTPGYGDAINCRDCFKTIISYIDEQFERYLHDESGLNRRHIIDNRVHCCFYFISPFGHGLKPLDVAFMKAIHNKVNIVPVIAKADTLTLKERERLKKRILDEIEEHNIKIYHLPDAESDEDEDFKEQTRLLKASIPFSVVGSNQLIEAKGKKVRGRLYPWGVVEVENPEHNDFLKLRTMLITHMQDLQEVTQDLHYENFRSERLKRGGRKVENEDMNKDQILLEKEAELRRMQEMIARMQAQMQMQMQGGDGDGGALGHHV
UniProt Q5PRF9: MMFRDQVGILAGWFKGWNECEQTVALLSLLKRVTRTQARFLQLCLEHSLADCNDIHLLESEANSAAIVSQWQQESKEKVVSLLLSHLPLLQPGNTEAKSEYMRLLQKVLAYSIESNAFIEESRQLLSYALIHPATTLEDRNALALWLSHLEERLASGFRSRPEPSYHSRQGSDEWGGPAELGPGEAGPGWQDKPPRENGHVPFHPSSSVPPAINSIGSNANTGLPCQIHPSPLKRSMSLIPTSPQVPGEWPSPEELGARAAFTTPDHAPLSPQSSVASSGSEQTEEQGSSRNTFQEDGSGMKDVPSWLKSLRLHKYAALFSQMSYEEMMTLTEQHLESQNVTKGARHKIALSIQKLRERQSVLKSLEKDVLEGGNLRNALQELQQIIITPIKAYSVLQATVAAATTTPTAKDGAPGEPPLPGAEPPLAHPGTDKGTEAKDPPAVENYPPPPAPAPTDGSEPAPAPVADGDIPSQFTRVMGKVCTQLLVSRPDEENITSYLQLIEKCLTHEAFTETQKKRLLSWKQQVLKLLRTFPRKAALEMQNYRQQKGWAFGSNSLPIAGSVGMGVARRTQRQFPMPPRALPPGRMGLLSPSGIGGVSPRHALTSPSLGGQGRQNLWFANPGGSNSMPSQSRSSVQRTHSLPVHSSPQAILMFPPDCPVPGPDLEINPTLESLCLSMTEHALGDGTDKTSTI
UniProt Q16181: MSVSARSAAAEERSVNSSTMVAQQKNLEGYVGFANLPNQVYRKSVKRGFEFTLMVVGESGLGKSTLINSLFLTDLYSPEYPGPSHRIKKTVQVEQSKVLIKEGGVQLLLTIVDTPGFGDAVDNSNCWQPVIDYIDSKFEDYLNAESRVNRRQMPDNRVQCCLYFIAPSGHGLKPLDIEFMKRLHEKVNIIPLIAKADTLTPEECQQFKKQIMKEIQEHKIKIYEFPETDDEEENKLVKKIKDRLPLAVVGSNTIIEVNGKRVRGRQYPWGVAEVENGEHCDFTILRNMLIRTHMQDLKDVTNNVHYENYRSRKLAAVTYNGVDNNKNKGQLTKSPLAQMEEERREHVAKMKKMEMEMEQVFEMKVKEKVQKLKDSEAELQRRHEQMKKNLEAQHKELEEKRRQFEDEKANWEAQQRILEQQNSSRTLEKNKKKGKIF

Experiments:
Assay in all cases: log2 fold change, soluble protein after heating vs DMSO (PISA); higher = thermal stabilisation; K562 lysate, 10 uM; active = over 0.2 and 3.5 SD of the protein, either way, in both replicates (recomputed)
ibrutinib = compound: C=CC(=O)N1CCC[C@@H](n2nc(-c3ccc(Oc4ccccc4)cc3)c3c(N)ncnc32)C1 [ibrutinib]
How it was run: (§1)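 A 30 min treatment with 10 μM compound was applied to crude K562 extract at 1 mg/mL protein in PBS pH 7.4 with 1 mM MgCl2. Heating for 3 min spanned 48°C-58°C, after which aliquots were pooled, adjusted to 0.5% NP-40 at 4°C and spun at 21,000xg for 90 min. TMTpro 16plex LC-MS/MS of the supernatant, with channel sums equalised, gave values recorded as log-two fold change in thermal stability against solvent controls, from duplicates.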

[1] = compound: CC(=O)c1cnc2ccc(-c3cc(Cl)c(O)c(Cl)c3)nc2c1N[C@H]1CC[C@H](CN(C)C)CC1
How it was run: as §1

ralimetinib = compound: CC(C)(C)Cn1c(N)nc2ccc(-c3[nH]c(C(C)(C)C)nc3-c3ccc(F)cc3)nc21 [ralimetinib]
How it was run: as §1

[2] = compound: CC(C)(O)CC(=O)NCCn1ccc2ncnc(Nc3ccc(Oc4cccc(C(F)(F)F)c4)c(Cl)c3)c21
How it was run: as §1

[3] = compound: CC(C)C1=C2N=C(C=C(N2N=C1)NCC3=CC=CC=C3)NCCCCCCN
How it was run: as §1

[4] = compound: CC1=C(C(CC(=O)N1)C2=CC=C(C=C2)C(F)(F)F)C(=O)NC3=C(C=C4C(=C3)C=NN4)F
How it was run: as §1

[5] = compound: CC1=C(C2=C(C=C1)C(=O)C3=CC=CC=C3N2CCCN)C
How it was run: as §1

[6] = compound: CC1=C(C=C(C=C1)NC(=O)C2=CC(=CC=C2)C(C)(C)C#N)NC3=CC4=C(C=C3)N=CN(C4=O)C
How it was run: as §1

[7] = compound: CC1=C(C=C(C=C1)NC(=O)C2=CC(=CC=C2)N(C)C)NC(=O)C3=CC=C(C=C3)O
How it was run: as §1

[8] = compound: CC1=CC=C(C=C1)SC2=C3C=C(SC3=CN=C2)C(=O)N
How it was run: as §1

vemurafenib = compound: CCCS(=O)(=O)Nc1ccc(F)c(C(=O)c2c[nH]c3ncc(-c4ccc(Cl)cc4)cc23)c1F [vemurafenib]
How it was run: as §1

[9] = compound: CCCS(=O)(=O)Nc1ccc(F)c(C(=O)c2c[nH]c3ncc(Cl)cc23)c1F
How it was run: as §1

barasertib = compound: CCN(CCCOc1ccc2c(Nc3cc(CC(=O)Nc4cccc(F)c4)[nH]n3)ncnc2c1)CCOP(=O)(O)O [barasertib]
How it was run: as §1

[10] = compound: CC[C@@H]1C(=O)N(C)c2cnc(Nc3ccc(C(=O)NC4CCN(C)CC4)cc3OC)nc2N1C1CCCC1
How it was run: as §1

volasertib = compound: CC[C@@H]1C(=O)N(C)c2cnc(Nc3ccc(C(=O)N[C@H]4CC[C@H](N5CCN(CC6CC6)CC5)CC4)cc3OC)nc2N1C(C)C [volasertib]
How it was run: as §1

[11] = compound: CCn1c(C(=O)N(C2CC2)C2CC2)cc2c3c(ncn3C)c(Nc3cc(C)n(C)n3)nc21
How it was run: as §1

[12] = compound: CCn1cc(-c2ccnc3[nH]c(-c4cccc(CN(C)C)c4)cc23)c(-c2ccc(NC(=O)N(C)C)cc2)n1
How it was run: as §1

[13] = compound: CN1CCC(CNc2ccc3ncc(-c4cccc(OC(F)(F)F)c4)n3n2)CC1
How it was run: as §1

saracatinib = compound: CN1CCN(CCOc2cc(OC3CCOCC3)c3c(Nc4c(Cl)ccc5c4OCO5)ncnc3c2)CC1 [saracatinib]
How it was run: as §1

sotrastaurin = compound: CN1CCN(c2nc(C3=C(c4c[nH]c5ccccc45)C(=O)NC3=O)c3ccccc3n2)CC1 [sotrastaurin]
How it was run: as §1

Measured: log2 fold change

SCRN2 (UniProt Q96FV2)
inactive: ibrutinib -0.033 | [1] 0.028 | ralimetinib 0.03 | [2] -0.037 | [3] -0.03 | [4] -0.066 | [5] -0.078 | [6] 0.047 | [7] -0.014 | [8] -0.077 | vemurafenib 0.101 | [9] -0.032 | barasertib -0.007 | [10] 0.038 | volasertib 0.001 | [11] -0.019 | [12] -0.172 | [13] 0.014 | saracatinib 0.08 | sotrastaurin 0.052

SEC24D isoform 2 (UniProt O94855)
inactive: ibrutinib 0.005 | [1] -0.024 | ralimetinib 0.01 | [2] -0.018 | [3] 0 | [4] -0.009 | [5] -0.011 | [6] 0.019 | [7] -0.035 | [8] 0.023 | vemurafenib -0.039 | [9] 0.027 | barasertib -0.002 | [10] -0.032 | volasertib -0.032 | [11] -0.011 | [12] -0.001 | [13] -0.009 | saracatinib 0.005 | sotrastaurin -0.025

SCPEP1 (UniProt Q9HB40)
inactive: ibrutinib 0.024 | [1] -0.018 | ralimetinib 0 | [2] -0.011 | [3] 0.026 | [4] 0.049 | [5] -0.08 | [6] -0.012 | [7] -0.223 | [8] -0.006 | vemurafenib 0.009 | [9] 0.016 | barasertib 0.073 | [10] -0.148 | volasertib -0.076 | [11] -0.015 | [12] 0.01 | [13] -0.005 | saracatinib 0.022 | sotrastaurin 0.017

SAP30BP (UniProt Q9UHR5)
inactive: ibrutinib -0.01 | [1] -0.011 | ralimetinib -0.019 | [2] -0.024 | [3] -0.054 | [4] -0.013 | [5] -0.005 | [6] 0.035 | [7] 0.034 | [8] -0.021 | vemurafenib 0.019 | [9] 0 | barasertib 0 | [10] 0.068 | volasertib 0.011 | [11] -0.059 | [12] -0.039 | [13] 0.022 | saracatinib -0.015 | sotrastaurin -0.004

SDF4 (UniProt Q9BRK5)
inactive: ibrutinib 0.002 | [1] 0.014 | ralimetinib -0.023 | [2] 0.064 | [3] 0.002 | [4] 0.028 | [5] 0.002 | [6] -0.016 | [7] -0.008 | [8] -0.076 | vemurafenib -0.013 | [9] -0.009 | barasertib -0.018 | [10] 0.03 | volasertib 0.012 | [11] 0.036 | [12] 0.099 | [13] -0.059 | saracatinib -0.017 | sotrastaurin 0.008

SENP6 (UniProt Q9GZR1)
inactive: ibrutinib 0.011 | [1] 0.044 | ralimetinib 0 | [2] -0.015 | [3] -0.017 | [4] 0.05 | [5] -0.035 | [6] 0.022 | [7] 0.013 | [8] -0.094 | vemurafenib 0.063 | [9] -0.01 | barasertib 0.007 | [10] 0.04 | volasertib -0.065 | [11] -0.044 | [12] -0.038 | [13] 0.016 | saracatinib 0.028 | sotrastaurin -0.006

Reprinted from above (2 entries):
SDF4 (UniProt Q9BRK5)
inactive: ibrutinib 0.002 | [1] 0.014 | ralimetinib -0.023 | [2] 0.064 | [3] 0.002 | [4] 0.028 | [5] 0.002 | [6] -0.016 | [7] -0.008 | [8] -0.076 | vemurafenib -0.013 | [9] -0.009 | barasertib -0.018 | [10] 0.03 | volasertib 0.012 | [11] 0.036 | [12] 0.099 | [13] -0.059 | saracatinib -0.017 | sotrastaurin 0.008

SENP6 (UniProt Q9GZR1)
inactive: ibrutinib 0.011 | [1] 0.044 | ralimetinib 0 | [2] -0.015 | [3] -0.017 | [4] 0.05 | [5] -0.035 | [6] 0.022 | [7] 0.013 | [8] -0.094 | vemurafenib 0.063 | [9] -0.01 | barasertib 0.007 | [10] 0.04 | volasertib -0.065 | [11] -0.044 | [12] -0.038 | [13] 0.016 | saracatinib 0.028 | sotrastaurin -0.006

(listing goes on)

SAR1A (UniProt Q9NR31)
inactive: ibrutinib -0.082 | [1] -0.105 | ralimetinib 0.027 | [2] -0.028 | [3] 0.026 | [4] 0.163 | [5] -0.042 | [6] 0.021 | [7] -0.045 | [8] 0.112 | vemurafenib 0.109 | [9] 0 | barasertib 0.07 | [10] 0.03 | volasertib -0.05 | [11] 0.021 | [12] -0.009 | [13] -0.108 | saracatinib 0.025 | sotrastaurin 0.084

SCLT1 (UniProt Q96NL6)
inactive: ibrutinib 0.04 | [1] 0.067 | ralimetinib -0.043 | [2] -0.023 | [3] 0.018 | [4] 0 | [5] -0.02 | [6] 0.004 | [7] 0.029 | [8] -0.013 | vemurafenib 0.041 | [9] -0.003 | barasertib 0.098 | [10] -0.037 | volasertib -0.018 | [11] -0.022 | [12] 0.014 | [13] 0.17 | saracatinib -0.014 | sotrastaurin 0.021

SAAL1 (UniProt Q96ER3)
inactive: ibrutinib 0.057 | [1] 0.024 | ralimetinib -0.016 | [2] 0.047 | [3] 0.002 | [4] -0.003 | [5] 0.008 | [6] -0.046 | [7] 0.002 | [8] -0.004 | vemurafenib -0.018 | [9] 0.028 | barasertib -0.037 | [10] -0.037 | volasertib -0.032 | [11] 0.079 | [12] 0.061 | [13] -0.143 | saracatinib -0.042 | sotrastaurin 0.001

SEC23B (UniProt Q15437)
inactive: ibrutinib -0.006 | [1] 0 | ralimetinib -0.008 | [2] 0.007 | [3] -0.015 | [4] 0 | [5] -0.016 | [6] -0.008 | [7] -0.011 | [8] 0.004 | vemurafenib -0.016 | [9] 0.023 | barasertib 0 | [10] -0.008 | volasertib -0.005 | [11] 0.003 | [12] -0.017 | [13] 0 | saracatinib 0.019 | sotrastaurin -0.009

SCAMP1 (UniProt O15126)
inactive: ibrutinib 0 | [1] 0.003 | ralimetinib -0.024 | [2] -0.063 | [3] 0.035 | [4] 0.037 | [5] 0.001 | [6] 0.008 | [7] 0.033 | [8] -0.004 | vemurafenib -0.026 | [9] 0.015 | barasertib 0.006 | [10] 0.028 | volasertib 0.032 | [11] -0.071 | [12] -0.145 | [13] 0.06 | saracatinib -0.008 | sotrastaurin 0.03

SAE1 (UniProt Q9UBE0)
inactive: ibrutinib -0.008 | [1] 0.005 | ralimetinib 0.005 | [2] 0.003 | [3] 0 | [4] -0.007 | [5] -0.007 | [6] 0.01 | [7] -0.017 | [8] -0.003 | vemurafenib 0.002 | [9] -0.013 | barasertib -0.036 | [10] -0.015 | volasertib 0.005 | [11] 0.002 | [12] -0.007 | [13] 0.028 | saracatinib 0.004 | sotrastaurin -0.002

SEPTIN2 isoform 2 (UniProt Q15019)
inactive: ibrutinib -0.014 | [1] -0.002 | ralimetinib 0.003 | [2] -0.016 | [3] -0.011 | [4] -0.041 | [5] 0.003 | [6] 0.014 | [7] -0.013 | [8] -0.001 | vemurafenib 0.008 | [9] -0.02 | barasertib -0.025 | [10] 0.045 | volasertib 0.007 | [11] -0.017 | [12] 0.08 | [13] 0.051 | saracatinib 0.01 | sotrastaurin 0.036

SAMD4B (UniProt Q5PRF9)
inactive: ibrutinib 0.008 | [1] -0.008 | ralimetinib 0.026 | [2] 0 | [3] 0.009 | [4] 0.046 | [5] 0.03 | [6] 0.044 | [7] 0.008 | [8] -0.007 | vemurafenib -0.025 | [9] 0.017 | barasertib 0.011 | [10] 0.017 | volasertib -0.007 | [11] 0.024 | [12] -0.09 | [13] 0.069 | saracatinib -0.023 | sotrastaurin -0.027

SEPTIN7 (UniProt Q16181)
inactive: ibrutinib -0.031 | [1] -0.022 | ralimetinib -0.001 | [2] -0.022 | [3] -0.005 | [4] -0.002 | [5] -0.02 | [6] 0.007 | [7] -0.013 | [8] 0.008 | vemurafenib -0.021 | [9] -0.022 | barasertib -0.014 | [10] 0 | volasertib 0.01 | [11] -0.004 | [12] 0.126 | [13] -0.063 | saracatinib -0.015 | sotrastaurin 0.025
